Measured values published in PubChem BioAssay AID504467 (National Center for Advancing Translational Sciences (NCATS), 2011).
Out of some 330,000 compounds screened, about 7,700 (2.3%) were called active. The inconclusive results got no clear call from the source; some entries with a clear call stand among them for comparison. Calls follow the shape of the dose curve; as a rule, active = well fitted inhibition curve with a large enough effect; inconclusive = small, poorly fitted or top-dose-only effect, or effect the other way; inactive = flat fitted curve, though single readings scatter. Where the call is inconclusive, the potency comes from a doubtful curve fit.

assay: qHTS screen for small molecules that inhibit ELG1-dependent DNA repair in human embryonic kidney (HEK293T) cells expressing luciferase-tagged ELG1; conditions: HEK293T ELG1-luciferase reporter, luminescence, 16 h, DNA damage induced by 5-fluorouridine; activity change, negative = inhibition: at 46.1 µM (top of the series); also: nearly all actives have a fitted effect of over 55% in size
How it was run: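 Cells (2,000 per well) received 5-fluorouridine plus test compound or DMSO and were incubated 16 hr at 37 °C, 5% CO2. Luciferase activity was read by luminescence 30 min after ONE-Glo addition; signal suppression marked inhibition of damage-induced ELG1 function.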
% is scaled to controls: 0 for no effect and ±100 for the full control effect; potency is read from the fitted curve at half-maximal effect.

SMILES	Potency	activity change, negative = inhibition
N/C(=N\OCc1ccc([N+](=O)[O-])cc1)c1ccncc1	inconclusive: 23.1 µM [activator, partial curve]	–
Fc1cccc2sc(N3CCOCC3)nc12	inconclusive: 20.6 µM [activator, partial curve]	–
Cc1cc(Cl)ccc1NC(=O)CSc1nnc(-c2ccncc2)n1Cc1ccco1	inconclusive: 0.58 µM [inhibitor, partial curve]	–
COc1ccc(-c2nnc(NC(=O)c3cccs3)s2)c(OC)c1	inconclusive: 20.6 µM [activator, partial curve]	–
CS(=O)(=O)N(Cc1ccc(Cl)cc1)c1ccc(C(=O)Nc2cccnc2)cc1	inconclusive: 23.1 µM [inhibitor, partial curve]	–
O=C(c1ccc2c3c(cccc13)C(=O)N(O)C2=O)N1CCCCC1	inconclusive: 16.4 µM [activator, single point]	–
CC1CCCN(CCCNC(=O)c2ccc(N3CCCC3=O)cc2)C1 (stereo not drawn)	inconclusive: 16.4 µM [activator, partial curve, poor fit]	–
N#Cc1cccc(C(=O)Nc2cc(S(=O)(=O)N3CCOCC3)ccc2N2CCCC2)c1	inconclusive: 18.3 µM [activator, partial curve, poor fit]	–
O=C(O)C1CCCCC1C(=O)Nc1ccc(OCc2ccccc2)cc1 (stereo not drawn)	inconclusive: 14.6 µM [activator, partial curve, poor fit]	–
COc1cc(C(=O)Nc2ccc3c(c2)ncn3C)cc(OC)c1OC	inconclusive: 15.8 µM [activator, single point]	–
Cn1c(SCC(=O)Nc2ccc3nc(SCC(=O)N4CCCC4)sc3c2)nnc1-c1ccccc1	active: 20.6 µM	–
Cn1cnc2c(N/N=C/c3cccs3)ncnc21	inconclusive: 7.3 µM [activator, partial curve]	–
CCOc1ccc(C(=O)Nc2ccccc2OC(F)F)cc1	inconclusive: 23.1 µM [activator, single point]	–
COc1cccc(C2=NOC(C(=O)N3CCN(c4ccccc4)CC3)C2)c1OC (stereo not drawn)	inconclusive: 20.6 µM [inhibitor, single point]	–
CC(C)CCNC(=O)c1ccc2c(c1)N(Cc1ccccc1)C(=O)CS2=O (stereo not drawn)	–	inactive: 21.4%
Cc1ccc(NC(=O)CSc2nnc(-c3cccnc3)o2)c(C)c1	inconclusive: 20.6 µM [activator, partial curve]	–
COC(=O)c1sccc1NC(=O)c1cc(-c2cc(C)ccc2C)nc2ccccc12	inconclusive: 14.6 µM [inhibitor, partial curve]	–
C/C(=N\NC(=O)Cc1cccn1C)c1ccc2ccccc2c1	inconclusive: 6.51 µM [activator, single point]	–

Quoted from the listing.
O=C(c1ccc2c3c(cccc13)C(=O)N(O)C2=O)N1CCCCC1 | Potency: inconclusive: 16.4 µM [activator, single point]
COc1cccc(C2=NOC(C(=O)N3CCN(c4ccccc4)CC3)C2)c1OC (stereo not drawn) | Potency: inconclusive: 20.6 µM [inhibitor, single point]
